T1: Reb1-FLAG (S. cerevisiae (endogenous in yeast)) (UniProt P21538)
T1 sequence: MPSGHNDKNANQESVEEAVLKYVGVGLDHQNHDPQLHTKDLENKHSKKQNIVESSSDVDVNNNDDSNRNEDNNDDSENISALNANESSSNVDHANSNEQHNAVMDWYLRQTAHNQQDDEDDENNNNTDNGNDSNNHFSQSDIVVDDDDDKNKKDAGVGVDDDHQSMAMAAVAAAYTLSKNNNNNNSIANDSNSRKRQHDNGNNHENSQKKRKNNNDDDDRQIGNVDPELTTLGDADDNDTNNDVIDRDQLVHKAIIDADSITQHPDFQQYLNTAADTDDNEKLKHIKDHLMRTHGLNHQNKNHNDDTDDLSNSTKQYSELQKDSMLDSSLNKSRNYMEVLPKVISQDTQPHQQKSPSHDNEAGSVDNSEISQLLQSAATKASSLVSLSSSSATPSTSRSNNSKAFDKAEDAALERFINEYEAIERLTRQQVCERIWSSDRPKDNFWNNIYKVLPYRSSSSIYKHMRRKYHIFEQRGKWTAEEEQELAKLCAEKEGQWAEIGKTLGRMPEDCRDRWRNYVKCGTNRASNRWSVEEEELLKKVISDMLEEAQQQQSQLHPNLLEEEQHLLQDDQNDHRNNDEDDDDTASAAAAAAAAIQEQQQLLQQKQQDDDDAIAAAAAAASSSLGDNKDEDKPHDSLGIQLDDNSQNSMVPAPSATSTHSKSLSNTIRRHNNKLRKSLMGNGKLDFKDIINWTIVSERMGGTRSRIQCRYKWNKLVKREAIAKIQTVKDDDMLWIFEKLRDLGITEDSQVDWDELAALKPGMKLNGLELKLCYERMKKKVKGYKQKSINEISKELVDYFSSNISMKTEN

Sequences of proteins named here, by UniProt entry; tags and fusion partners are left off.
UniProt P10659: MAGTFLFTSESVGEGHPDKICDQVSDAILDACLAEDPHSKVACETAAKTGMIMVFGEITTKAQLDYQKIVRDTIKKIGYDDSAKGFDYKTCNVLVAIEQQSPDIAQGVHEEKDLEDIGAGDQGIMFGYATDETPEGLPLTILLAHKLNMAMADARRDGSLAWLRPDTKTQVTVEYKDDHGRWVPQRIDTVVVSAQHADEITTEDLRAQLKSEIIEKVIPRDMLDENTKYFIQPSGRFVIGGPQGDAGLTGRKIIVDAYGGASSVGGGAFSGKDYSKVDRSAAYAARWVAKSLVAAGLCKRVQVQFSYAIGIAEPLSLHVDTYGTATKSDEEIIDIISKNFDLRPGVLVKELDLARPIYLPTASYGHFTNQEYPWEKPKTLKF

B1: pyruvate kinase Pyk1 (enzyme, UniProt P00549 1-500)
chain: MSRLERLTSLNVVAGSDLRRTSIIGTIGPKTNNPETLVALRKAGLNIVRMNFSHGSYEYHKSVIDNARKSEELYPGRPLAIALDTKGPEIRTGTTTNDVDYPIPPNHEMIFTTDDKYAKACDDKIMYVDYKNITKVISAGRIIYVDDGVLSFQVLEVVDDKTLKVKALNAGKICSHKGVNLPGTDVDLPALSEKDKEDLRFGVKNGVHMVFASFIRTANDVLTIREVLGEQGKDVKIIVKIENQQGVNNFDEILKVTDGVMVARGDLGIEIPAPEVLAVQKKLIAKSNLAGKPVICATQMLESMTYNPRPTRAEVSDVGNAILDGADCVMLSGETAKGNYPINAVTTMAETAVIAEQAIAYLPNYDDMRNCTPKPTSTTETVAASAVAAVFEQKAKAIIVLSTSGTTPRLVSKYRPNCPIILVTRCPRAARFSHLYRGVFPFVFEKEPVSDWTDDVEARINFGIEKAKEFGILKKGDTYVSIQGFKAGAGHSNTLQVSTV
B2: Acs2 (enzyme, UniProt P52910 1-683)
chain: MTIKEHKVVYEAHNVKALKAPQHFYNSQPGKGYVTDMQHYQEMYQQSINEPEKFFDKMAKEYLHWDAPYTKVQSGSLNNGDVAWFLNGKLNASYNCVDRHAFANPDKPALIYEADDESDNKIITFGELLRKVSQIAGVLKSWGVKKGDTVAIYLPMIPEAVIAMLAVARIGAIHSVVFAGFSAGSLKDRVVDANSKVVITCDEGKRGGKTINTKKIVDEGLNGVDLVSRILVFQRTGTEGIPMKAGRDYWWHEEAAKQRTYLPPVSCDAEDPLFLLYTSGSTGSPKGVVHTTGGYLLGAALTTRYVFDIHPEDVLFTAGDVGWITGHTYALYGPLTLGTASIIFESTPAYPDYGRYWRIIQRHKATHFYVAPTALRLIKRVGEAEIAKYDTSSLRVLGSVGEPISPDLWEWYHEKVGNKNCVICDTMWQTESGSHLIAPLAGAVPTKPGSATVPFFGINACIIDPVTGVELEGNDVEGVLAVKSPWPSMARSVWNHHDRYMDTYLKPYPGHYFTGDGAGRDHDGYYWIRGRVDDVVNVSGHRLSTSEIEASISNHENVSEAAVVGIPDELTGQTVVAYVSLKDGYLQNNATEGDAEHITPDNLRRELILQVRGEIGPFASPKTIILVRDLPRTRSGKIMRRVLRKVASNEAEQLGDLTTLANPEVVPAIISAVENQFFSQKKK
B3: Shm2 (enzyme, UniProt P37291 1-469)
chain: MPYTLSDAHHKLITSHLVDTDPEVDSIIKDEIERQKHSIDLIASENFTSTSVFDALGTPLSNKYSEGYPGARYYGGNEHIDRMEILCQQRALKAFHVTPDKWGVNVQTLSGSPANLQVYQAIMKPHERLMGLYLPDGGHLSHGYATENRKISAVSTYFESFPYRVNPETGIIDYDTLEKNAILYRPKVLVAGTSAYCRLIDYKRMREIADKCGAYLMVDMAHISGLIAAGVIPSPFEYADIVTTTTHKSLRGPRGAMIFFRRGVRSINPKTGKEVLYDLENPINFSVFPGHQGGPHNHTIAALATALKQAATPEFKEYQTQVLKNAKALESEFKNLGYRLVSNGTDSHMVLVSLREKGVDGARVEYICEKINIALNKNSIPGDKSALVPGGVRIGAPAMTTRGMGEEDFHRIVQYINKAVEFAQQVQQSLPKDACRLKDFKAKVDEGSDVLNTWKKEIYDWAGEYPLAV

No constants are given. Whether binding was seen depends on the method and setting. Binding seen in cells or lysates may run through a third protein. A yes stands for co-enrichment or nearness to the bait. Other partners may have been found. Sequences can lack the tags named with a protein.

In the experiment the target is T1, Reb1-FLAG (S. cerevisiae (endogenous in yeast)). In words: affinity purification with mass spectrometry; Reb1-FLAG immunoprecipitated by anti-FLAG beads; LC-MS of the tryptic digest; one biological replicate.
As for “Sam1 (from UniProt P10659 1-382) (enzyme)”, the binding entry is “binds”.
Turning to B1, the binding entry is listed as “binds”.
On to B2, for which the binding entry is given as “binds”.
The entry for B3 is “binds”.

Values taken from publication PMC9726891, “SESAME-catalyzed H3T11 phosphorylation inhibits Dot1-catalyzed H3K79me3 to regulate autophagy and telomere silencing” (Nature Communications, 2022).
